Assay results published in paper PMC10845952.
No constants are given. Whether binding was seen depends on the method and setting. Binding seen in cells or lysates may run through a third protein. Some entries that bind do so weakly or less than the wild type. Where a sequence is shown, tags or fusion partners need not be part of it.

T1: 3x FLAG epitope-tagged MecA (S. mutans) (UniProt Q8DW33)
T1 sequence: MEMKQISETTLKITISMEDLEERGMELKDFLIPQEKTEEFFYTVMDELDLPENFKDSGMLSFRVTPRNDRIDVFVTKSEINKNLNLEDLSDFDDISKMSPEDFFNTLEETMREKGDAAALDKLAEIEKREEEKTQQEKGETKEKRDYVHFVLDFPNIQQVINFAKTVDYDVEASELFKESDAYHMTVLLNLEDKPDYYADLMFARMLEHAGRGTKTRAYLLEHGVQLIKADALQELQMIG


What was measured:
[1] = target: T1, 3x FLAG epitope-tagged MecA (S. mutans); test: co-IP; 3x FLAG-tagged MecA as bait, 3x HA-tagged candidates; lysates of mid-log S. mutans (cells formaldehyde crosslinked by the methods); anti-FLAG affinity resin; anti-HA western blot, input against output
[2] = target: T1, 3x FLAG epitope-tagged MecA (S. mutans); test: co-IP

Binder | binding [1] | binding [2]
3x HA epitope-tagged DnaG (protein, UniProt Q8DUS6 1-592) MVVDKEKIKEIKDSINIVDVIGEVVSLSRSGRNYLGLCPFHKEKTPSFNVIEDRQFFHCFGCGRSGDVFKFVEDYRNISFLESVQVLAERSGINVTLQDKSQEVKKEHPHQKLFNINGDANKFYQAVLKTTKVGETARQYLYERGLTDELITYFKIGLAPNEYDYLYQAMLKKYDEDTIINSGLFNLSDSNSIYDAFRNRIMFPLTDEFGHIIGFSGRIWTEEDTSKKLAKYKNTRSTIIFNKSYELYHLDKARTAAKKEHELYLMEGFMDVIAAYRAGIPNAVASMGTALTPEHVKHLRKFTKKVILTYDGDKAGQNAIAKSLNLLSNMAVEIVRIPGQMDPDEFIKENSEEELEKLLKQARISSAEFWIEHLKPENIDNLQAEIDYVEKIAKVIAASPSITAQNTYINKVAEFLPDFDYLQVEQAVNNERLQMRSQISEQESANQQVLIDLPVTKQLTALTKAESQLFHRLLHHDYLLNEFRNRAHFKFTTPELQELYQILKTNGEINAYDLSQLSNQLQETYYRVLEENLPEEIAEDEIRQIEDQIDKCLQRQEMRKQSKAIRESSNHGDVDTAVEGLAALIAQKRNME |  | binds
3x HA epitope-tagged AlaS (protein, UniProt Q8CWY0 1-872) MKQLTSAQVRQMWLDFWKSKDHAIEPSANLVPVNDPTLLWINSGVATLKKYFDGSVIPENPRITNAQKAIRTNDIENVGKTARHHTMFEMLGNFSVGDYFRDDAIKWGFELLTSPEWFDLPKDKLYMTYYPDDKDSYNRWIECGVDPSHLIPIEDNFWEIGAGPSGPDTEIFFDRGEDFDPDHIGVRLLAEDIENDRYIEIWNIVLSQFNADPAVPRSEYKELPHKNIDTGAGLERLVAVMQGAKTNFETDLFMPIIREIEKLSGKTYDQDGDNMSFKVIADHIRSLSFAIGDGALPGNEGRGYVLRRLLRRAVMHGRRLGINEPFLYKLVPTVGKIMESYYPEVLEKQDFIEKIVKREEETFARTIDAGSNMLDQLLADLKAADKDTLEGKDIFRLYDTYGFPVELTEELAEDAGFKIDHQGFQAAMKEQQERARANVVKGGSMGMQNETLSNITEKSTFNYEKEALDSSLSVIIADNKRIEAVSEGQVLLVFSETPFYAEMGGQVADHGLIKNDKGDTVARVTDVQKAPNGQALHTVDVLGSLSVGTTYHLEIDHERRNRVMKNHTATHLLHAALHNVIGNHATQAGSLNEVEFLRFDFTHFEAVTPEELRQIEEEVNQQIWKAIPVTTIETDLDTAKEMGAMALFGEKYGKNVRVVSIGDYSVELCGGTHLKNTSEIGIFKIVKEEGIGSGTRRILAVTSKEAFEAYRQEEDILKEIATTLKAPQMNQVANKVASLQDQLHKLQKENAELKEKAAAVAAGDIFKDVKEVNGLRYIASQVEVADAGALRTFADKWKQKDYSDVLVLVASIGKKVNVLVASKSKDIHAGNLIKALAPIVSGRGGGKPDMAMAGGSDASAIKDLIAAVAENL | binds weakly | 
3x HA epitope-tagged ClpC (protein, UniProt Q8DS14 1-813) MTDYSLKMQEVFRLAQFEAARFESSYLESWHVLLAMVEIDSSVAGLSFAEFEADVRFEDYQAAAILAIGKKPKSSSNDIMLLEQSHALKRTLAEAAAISQVTHAKEVGTEHVLFAMLLNPNLLATRILELVGFHAKDDGESIRLLDLRKVIERYAGFSKEDIKAIFEMRKPKKVKNSSSFSDLMKPPSVTGELADFTRDLTELARQGRLEPVIGREQEISRMVQILSRKTKNNPVLVGDAGVGKTALAYGLAQRIVDSAVPFELADMKVLELDMMSVVAGTRFRGDFEERMNQIIADIEADGHIVLFIDELHTIMGSGSGIDSTLDAANILKPALARGSLRTIGATTQEEYQKHIEKDAALSRRFAKVTIEEPSEEEAYQILLGLKKSYETYHHVIISDAAVMAAVKGAHRYLSGKNLPDSAIDLLDEASATVQGLVKKKAPAYLTDLDHALITNDYQLAKRLLKKEKKPLLKKRAEVKEEDILATLSKLSGIPVKKLTQADSKKYLNLERELHKRVIGQDDAVSSISRAIRRNQSGIRVGKRPIGSFMFLGPTGVGKTELAKALAEVLFDDESALIRFDMSEYMEKFAASRLNGAPPGYVGYEEGGELTEKVRNKPYSVLLFDEVEKAHPDIFNILLQVLDDGVLTDSRGRKVDFSNTIIIMTSNLGATALRDDKTVGFGAKSFSQDYKAMESRILEELKKVYRPEFINRIDEKVVFHNLGQEDIRHIVKIMVAPLIAHLADQGITLKFQPSALKHLALAGYDAEMGARPLRRTLQTEVEDKLAELILSGKLASGQTLKIGIQKEKLKFDIV | binds | 

Now from value to binder:

binding [1] | binding [2] | Binder
binds |  | 3x HA epitope-tagged GltB (protein, UniProt Q8CWY8 1-478) MADPFGFLKYERKDNPYRPVNERIKDFEELQTTLSVEERQKQAARCMNCGIPFCHEGTFYGGGRAVSGCPNDNLIPEWNDLIYKGDFRRAFERLTRTNPLPEMTGRVCPAPCEKACTEGLNGSGVTIHDNERFIIDNAFEEGWVADSGRPIERTGFKVAVVGSGPAGLSAAWRLNQLGHSVTVFERSDRFGGLLMYGIPNMKLDKKIVQRRIDTMASIGINFVANTEIGRDITAEELLEKFDRVILATGASVPRDLDIPGRDLKGIRFAVDFLTETTKNLLDSDTHELPPLLEGKHVLVIGGGDTGNDCIGTAVRLGAASVRQLEITPQLPEKRLPTNPWPQYPMINRTGYGQEEADFVQQTDLTDYITSTVEFLGENGQVTAVKTIKVGPGFKAIEGTEEVIKADLVLLAMGFTGAEKALFDQFRVECVYDDYSTRNEKVFVAGDARRGPSLVIWGIREGRKTAEKIDQNLRMMVTE
binds |  | 3x HA epitope-tagged ThiI (protein, UniProt Q8DUR1 1-405) MQYSEIMVRYGELSTKGKNRMRFINQLKRNMKHVLSIYPEVSIRADRDRAHIYLNGANYVPVAESLKQIFGIQAFSPSYKVEKSVPALEKAVQAIMVELHHEGLTFKISSKRSDHQFELDSRELNQVLGSAVFAVLPDIKAQMNHPNVNLKVEIREEAAYLSYENIKGAGGLPVGTAGKGMLMLSGGIDSPVAGYLALKRGVNIEAVHFASPPYTSPGALKKAQDLTRKLTKFGGNIQFIEVPFTEIQEEIKAKAPEAYLMTLTRRFMMRIADRIREERSGLVIINGESLGQVASQTLESMQAINAVTTTPVIRPVVTMDKLEIIDIAEKIDTFAISIQPFEDCCTIFAPDRPKTNPKIKNVEQYEARLDIEGLVARAVAGINITEITPQEESQDEVDVLIEDLL
